Source: article PMC3150357
The exact form of at least one protein or probe is not confirmed. Results from cells or extracts need not show a direct contact. For some of these results: Negatives hold for the conditions tested. Protein sequences can lack the tags named with them.

What was measured:
[1] = molecular target: T1, ISL1 (Islet 1, LIM-homeodomain) (UniProt P61372); assay: competition with a labelled probe; conditions: 10 µg nuclear protein, 0.25 ng (20 kcpm) 32P duplex, 20 µl, 4°C, 6% native PAGE, buffer composition, salt and pH not stated, protein in an extract, label: none (unlabeled competitor)
T1 sequence (looked up, limits assumed): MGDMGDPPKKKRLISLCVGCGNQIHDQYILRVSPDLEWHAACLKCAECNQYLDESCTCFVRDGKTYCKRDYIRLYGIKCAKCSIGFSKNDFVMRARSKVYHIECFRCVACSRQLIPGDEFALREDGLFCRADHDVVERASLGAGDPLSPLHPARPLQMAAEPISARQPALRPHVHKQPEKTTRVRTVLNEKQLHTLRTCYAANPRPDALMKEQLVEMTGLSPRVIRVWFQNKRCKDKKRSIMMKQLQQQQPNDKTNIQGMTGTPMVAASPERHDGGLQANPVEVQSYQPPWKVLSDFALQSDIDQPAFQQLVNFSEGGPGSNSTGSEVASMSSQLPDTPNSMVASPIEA

[2] = molecular target: T1, ISL1 (Islet 1, LIM-homeodomain); assay: EMSA with anti-ISL1 antibody (complex attenuated); conditions: 10 µg nuclear protein, 0.25 ng (20 kcpm) 32P duplex, 20 µl, 4°C, 6% native PAGE; buffer composition, salt and pH not stated; protein in an extract; label: 32P

Row | Sequence | binding result [2] | also measured
1 | AATTTAATTTCTTTTTGCCGTAAAAAAAATGAGTC (double strand) [Mutant CyclinD1 probe] |  | binding result ([1]; unlabeled competitor against labeled N3): no binding
2 | AATTTAATTTCTTTTTTAATTAAAAAAAATGAGTC (double strand) [Wild-type CyclinD1 probe] | binds | 
3 | ATTAGAGTCGGCTTTGCCGTAGTTAACACACAC (double strand) [Mutant c-Myc probe] |  | binding result ([1]; unlabeled competitor against labeled N1): no binding
4 | ATTAGAGTCGGCTTTTAATTAGTTAACACACAC (double strand) [Wild-type c-Myc probe] | binds | 
